From patent US20170292959A1, “PLASMIDS COMPRISING INTERNAL RIBOSOMAL ENTRY SITES AND USES THEREOF” (Dana-Farber Cancer Institute, Inc., priority 2014, published 2017)
These are yes or no findings as the source states them, for the method shown. Some binding calls cover weakened binding; strength is not graded here.

Protein sequences, listed by entry. Tags and fused reporters are not part of them. Lines headed by an entry give the natural chain unless they say otherwise; changes in a name come on top. Chains listed by the source or under a name are the forms on record and can include a tag or linker.
UniProt Q9UKT9: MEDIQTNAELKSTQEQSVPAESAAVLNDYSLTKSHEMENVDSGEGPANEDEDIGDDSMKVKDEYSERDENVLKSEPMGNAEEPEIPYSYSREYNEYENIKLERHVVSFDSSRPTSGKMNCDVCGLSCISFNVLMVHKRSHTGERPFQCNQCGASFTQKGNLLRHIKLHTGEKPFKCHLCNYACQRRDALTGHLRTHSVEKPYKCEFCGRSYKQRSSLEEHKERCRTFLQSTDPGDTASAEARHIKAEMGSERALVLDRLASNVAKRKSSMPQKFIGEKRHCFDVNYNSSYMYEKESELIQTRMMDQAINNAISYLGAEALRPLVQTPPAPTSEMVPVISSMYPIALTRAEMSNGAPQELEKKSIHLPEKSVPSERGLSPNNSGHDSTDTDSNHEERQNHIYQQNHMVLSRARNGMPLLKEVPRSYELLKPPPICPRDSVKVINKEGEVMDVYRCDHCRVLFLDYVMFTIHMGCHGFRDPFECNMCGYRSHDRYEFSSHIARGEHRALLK
cereblon (CRBN), wild-type (Q96SW2, form named): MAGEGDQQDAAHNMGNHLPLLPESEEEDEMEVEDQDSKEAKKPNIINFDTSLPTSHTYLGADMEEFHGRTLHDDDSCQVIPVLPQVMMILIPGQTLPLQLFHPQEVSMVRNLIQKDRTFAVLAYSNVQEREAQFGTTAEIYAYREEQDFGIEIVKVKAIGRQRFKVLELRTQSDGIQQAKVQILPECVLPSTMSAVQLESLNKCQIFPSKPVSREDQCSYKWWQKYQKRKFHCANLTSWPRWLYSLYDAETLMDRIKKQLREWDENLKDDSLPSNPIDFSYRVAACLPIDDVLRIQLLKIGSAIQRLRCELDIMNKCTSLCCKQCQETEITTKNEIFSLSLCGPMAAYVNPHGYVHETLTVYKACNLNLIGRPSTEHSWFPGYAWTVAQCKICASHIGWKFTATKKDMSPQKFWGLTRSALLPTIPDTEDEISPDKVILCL

Legend:
endogenous IKZF3 = endogenous IKZF3 (UniProt Q9UKT9); experiment: FLAG-tagged CRBN on anti-FLAG beads mixed with MM1S CRBN-/- cell extracts; lenalidomide 10 µM added after lysis; immunoblot
[1] = biological target: cereblon (CRBN), wild-type (human) (UniProt Q96SW2); experiment: cotransfection in MG132-treated 293FT cells, with lenalidomide

Substance	binding (endogenous IKZF3)	binding [1]
cereblon (CRBN), wild-type (from UniProt Q96SW2 1-441)	binds	
IKZF3 (exogenous) (from UniProt Q9UKT9 1-509)		binds
